Data taken from paper PMC10584935.

Assays:
[1] = molecular target: T1, MAB-10 protein fused to the GAL4 DNA-binding domain (C. elegans) (UniProt Q22002); assay: two-hybrid; yeast Y2HGold, pGADT7 and pGBKT7 fusions; spot assay on SD/-Leu/-Trp/-His/-Ade plates with 10 mM 3-AT, 2 days at 30 °C
T1 sequence: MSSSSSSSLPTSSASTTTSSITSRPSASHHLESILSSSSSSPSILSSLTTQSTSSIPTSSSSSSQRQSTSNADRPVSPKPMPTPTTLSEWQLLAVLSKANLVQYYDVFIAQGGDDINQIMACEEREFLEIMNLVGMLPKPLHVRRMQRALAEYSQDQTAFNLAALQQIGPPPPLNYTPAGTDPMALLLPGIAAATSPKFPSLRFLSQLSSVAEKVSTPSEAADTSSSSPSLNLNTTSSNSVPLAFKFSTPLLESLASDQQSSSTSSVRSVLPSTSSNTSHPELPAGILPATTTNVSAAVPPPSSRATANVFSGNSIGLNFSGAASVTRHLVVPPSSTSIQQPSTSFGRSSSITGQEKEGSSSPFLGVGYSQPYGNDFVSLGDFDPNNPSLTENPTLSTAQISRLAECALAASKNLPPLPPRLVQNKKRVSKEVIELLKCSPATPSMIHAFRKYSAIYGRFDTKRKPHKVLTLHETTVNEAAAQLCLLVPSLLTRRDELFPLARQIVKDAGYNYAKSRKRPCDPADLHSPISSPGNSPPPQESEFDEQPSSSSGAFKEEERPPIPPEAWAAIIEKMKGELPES

[2] = molecular target: T2, MAB-10::spGFPC (C. elegans) (UniProt Q22002); assay: split reporter; split GFP: spGFPN on DDX-23 and spGFPC on MAB-10, both expressed from the seam cell promoter P_(ceh-16) in living C. elegans; confocal imaging
T2 sequence: T1 sequence

| binding [1] | binding [2] | Substance |
| --- | --- | --- |
| binds |  | DDX-23 protein fused to the GAL4 activation domain (from UniProt Q95QN2) |
|  | binds | DDX-23::spGFPN (C. elegans) |

Results are given in words; binding and its absence hold for the method and conditions named. Binding can be weak; no strength is given. Tags and fused reporters may be left off the sequences shown. For some assays here: In cells and extracts the contact can be indirect.
